From publication PMC6639074

The chains behind the UniProt entries cited, without tags or fusion partners. Where a name states a change or a piece, a line headed by the entry shows the natural chain unless it says otherwise. A line that says so, or that is headed by a name, gives the form on record, which may keep a tag or linker.
Rab5A(Q79L)-BirA*-HA-MAO (P20339, form named): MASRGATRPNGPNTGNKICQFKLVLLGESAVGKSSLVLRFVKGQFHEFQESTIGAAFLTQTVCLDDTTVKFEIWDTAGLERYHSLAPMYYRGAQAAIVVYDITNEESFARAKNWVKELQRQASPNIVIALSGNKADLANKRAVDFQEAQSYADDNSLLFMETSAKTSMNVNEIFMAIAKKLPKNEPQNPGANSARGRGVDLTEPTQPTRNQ

Tests used:
[1] = biological target: Rab11A(Q69L)-BirA*-HA-MAO (human); experiment: proximity labelling; MitoID: GTPase-BirA*-HA-MAO chimera on mitochondria of transiently transfected HEK293T cells, 50 uM biotin 18 h, streptavidin beads, mass spectrometry, biological triplicates; hits by WD scores and volcano plots against the GDP-locked forms
[2] = biological target: Rab5A(Q79L)-BirA*-HA-MAO (human) (UniProt P20339); experiment: as above

B1: Rab3IP/Rabin8 (protein, UniProt Q96QF0 1-476)
chain: MGLKKMKGLSYDEAFAMANDPLEGFHEVNLASPTSPDLLGVYESGTQEQTTSPSVIYRPHPSALSSVPIQANALDVSELPTQPVYSSPRRLNCAEISSISFHVTDPAPCSTSGVTAGLTKLTTRKDNYNAEREFLQGATITEACDGSDDIFGLSTDSLSRLRSPSVLEVREKGYERLKEELAKAQRELKLKDEECERLSKVRDQLGQELEELTASLFEEAHKMVREANIKQATAEKQLKEAQGKIDVLQAEVAALKTLVLSSSPTSPTQEPLPGGKTPFKKGHTRNKSTSSAMSGSHQDLSVIQPIVKDCKEADLSLYNEFRLWKDEPTMDRTCPFLDKIYQEDIFPCLTFSKSELASAVLEAVENNTLSIEPVGLQPIRFVKASAVECGGPKKCALTGQSKSCKHRIKLGDSSNYYYISPFCRYRITSVCNFFTYIRYIQQGLVKQQDVDQMFWEVMQLRKEMSLAKLGYFKEEL
Q: B1 was tested. Which binding [1] did it give?
A: binds

B2: TBC1D12 (protein, UniProt O60347 1-775)
chain: MVGPEDAGACSGRNPKLLPVPAPDPVGQDRKVIRATGGFGGGVGAVEPPEEADEEEEADEEEETPPRQLLQRYLAAAGEQLEPGLCYCPLPAGQAGAPPPSAAPRSDACLLGSGSKHRGAEVADGRAPRHEGMTNGDSGFLPGRDCRDLEEARGLARAGGRESRRRRPYGRLRLEGPGDEDADGAGSPSDWASPLEDPLRSCCLVAADAQEPEGAGSDSGDSPASSCSSSEDSEQRGVGAGGPEEGAPPATSAERTNGGAEPRLGFSDIHFNSRNTFQVSRGQSARDHLPPAGPPVPLPAAEQGPAGASARARRSGGFADFFTRNLFPKRTKELKSVVHSAPGWKLFGKVPPRENLQKTSKIIQQEYEARTGRTCKPPPQSSRRKNFEFEPLSTTALILEDRPSNLPAKSVEEALRHRQEYDEMVAEAKKREIKEAHKRKRIMKERFKQEENIASAMVIWINEILPNWEVMRSTRRVRELWWQGLPPSVRGKVWSLAVGNELNITPELYEIFLSRAKERWKSFSETSSENDTEGVSVADREASLELIKLDISRTFPSLYIFQKGGPYHDVLHSILGAYTCYRPDVGYVQGMSFIAAVLILNLEEADAFIAFANLLNKPCQLAFFRVDHSMMLKYFATFEVFFEENLSKLFLHFKSYSLTPDIYLIDWIFTLYSKSLPLDLACRVWDVFCRDGEEFLFRTGLGILRLYEDILLQMDFIHIAQFLTKLPEDITSEKLFSCIAAIQMQNSTKKWTQVFASVMKDIKEGDKNSSPALKS
Q: B2 was tested. Which binding [1] did it give?
A: binds

B3: D-AKAP2/AKAP10 (protein, UniProt O43572 29-662)
chain: KVKGKEQEKTSDVKSIKASISVHSPQKSTKNHALLEAAGPSHVAINAISANMDSFSSSRTATLKKQPSHMEAAHFGDLGRSCLDYQTQETKSSLSKTLEQVLHDTIVLPYFIQFMELRRMEHLVKFWLEAESFHSTTWSRIRAHSLNTVKQSSLAEPVSPSKKHETTASFLTDSLDKRLEDSGSAQLFMTHSEGIDLNNRTNSTQNHLLLSQECDSAHSLRLEMARAGTHQVSMETQESSSTLTVASRNSPASPLKELSGKLMKSIEQDAVNTFTKYISPDAAKPIPITEAMRNDIIARICGEDGQVDPNCFVLAQSIVFSAMEQEHFSEFLRSHHFCKYQIEVLTSGTVYLADILFCESALFYFSEYMEKEDAVNILQFWLAADNFQSQLAAKKGQYDGQEAQNDAMILYDKYFSLQATHPLGFDDVVRLEIESNICREGGPLPNCFTTPLRQAWTTMEKVFLPGFLSSNLYYKYLNDLIHSVRGDEFLGGNVSLTAPGSVGPPDESHPGSSDSSASQSSVKKASIKILKNFDEAIIVDAASLDPESLYQRTYAGKMTFGRVSDLGQFIRESEPEPDVRKSKGSMFSQAMKKWVQGNTDEAQEELAWKIAKMIVSDIMQQAQYDQPLEKSTKL
Q: Which binding [1] does the source give for B3 here?
A: binds

B4: Rabenosyn-5 (protein, UniProt Q9H1K0 1-784)
chain: MASLDDPGEVREGFLCPLCLKDLQSFYQLHSHYEEEHSGEDRDVKGQIKSLVQKAKKAKDRLLKREGDDRAESGTQGYESFSYGGVDPYMWEPQELGAVRSHLSDFKKHRAARIDHYVVEVNKLIIRLEKLTAFDRTNTESAKIRAIEKSVVPWVNDQDVPFCPDCGNKFSIRNRRHHCRLCGSIMCKKCMELISLPLANKLTSASKESLSTHTSPSQSPNSVHGSRRGSISSMSSVSSVLDEKDDDRIRCCTHCKDTLLKREQQIDEKEHTPDIVKLYEKLRLCMEKVDQKAPEYIRMAASLNAGETTYSLEHASDLRVEVQKVYELIDALSKKILTLGLNQDPPPHPSNLRLQRMIRYSATLFVQEKLLGLMSLPTKEQFEELKKKRKEEMERKRAVERQAALESQRRLEERQSGLASRAANGEVASLRRGPAPLRKAEGWLPLSGGQGQSEDSDPLLQQIHNITSFIRQAKAAGRMDEVRTLQENLRQLQDEYDQQQTEKAIELSRRQAEEEDLQREQLQMLRERELEREREQFRVASLHTRTRSLDFREIGPFQLEPSREPRTHLAYALDLGSSPVPSSTAPKTPSLSSTQPTRVWSGPPAVGQERLPQSSMPQQHEGPSLNPFDEEDLSSPMEEATTGPPAAGVSLDPSARILKEYNPFEEEDEEEEAVAGNPFIQPDSPAPNPFSEEDEHPQQRLSSPLVPGNPFEEPTCINPFEMDSDSGPEAEEPIEEELLLQQIDNIKAYIFDAKQCGRLDEVEVLTENLRELKHTLAKQKGGTD
Q: For B4, which binding [2] is on record?
A: binds

B5: RPS6KC1 (protein, UniProt Q96S38 1-1066)
chain: MTSYRERSADLARFYTVTEPQRHPRGYTVYKVTARVVSRRNPEDVQEIIVWKRYSDFKKLHKELWQIHKNLFRHSELFPPFAKGIVFGRFDETVIEERRQCAEDLLQFSANIPALYNSKQLEDFFKGGIINDSSELIGPAEAHSDSLIDTFPECSTEGFSSDSDLVSLTVDVDSLAELDDGMASNQNSPIRTFGLNLSSDSSALGAVASDSEQSKTEEERESRSLFPGSLKPKLGKRDYLEKAGELIKLALKKEEEDDYEAASDFYRKGVDLLLEGVQGESSPTRREAVKRRTAEYLMRAESISSLYGKPQLDDVSQPPGSLSSRPLWNLRSPAEELKAFRVLGVIDKVLLVMDTRTEQTFILKGLRKSSEYSRNRKTIIPRCVPNMVCLHKYIISEESVFLVLQHAEGGKLWSYISKFLNRSPEESFDIKEVKKPTLAKVHLQQPTSSPQDSSSFESRGSDGGSMLKALPLKSSLTPSSQDDSNQEDDGQDSSPKWPDSGSSSEEECTTSYLTLCNEYGQEKIEPGSLNEEPFMKTEGNGVDTKAIKSFPAHLAADSDSPSTQLRAHELKFFPNDDPEAVSSPRTSDSLSRSKNSPMEFFRIDSKDSASELLGLDFGEKLYSLKSEPLKPFFTLPDGDSASRSFNTSESKVEFKAQDTISRGSDDSVPVISFKDAAFDDVSGTDEGRPDLLVNLPGELESTREAAAMGPTKFTQTNIGIIENKLLEAPDVLCLRLSTEQCQAHEEKGIEELSDPSGPKSYSITEKHYAQEDPRMLFVAAVDHSSSGDMSLLPSSDPKFQGLGVVESAVTANNTEESLFRICSPLSGANEYIASTDTLKTEEVLLFTDQTDDLAKEEPTSLFQRDSETKGESGLVLEGDKEIHQIFEDLDKKLALASRFYIPEGCIQRWAAEMVVALDALHREGIVCRDLNPNNILLNDRGHIQLTYFSRWSEVEDSCDSDAIERMYCAPEVGAITEETEACDWWSLGAVLFELLTGKTLVECHPAGINTHTTLNMPECVSEEARSLIQQLLQFNPLERLGAGVAGVEDIKSHPFFTPVDWAELMR
Q: Which binding [2] does the source give for B5 here?
A: binds

No constants are given. Whether binding was seen depends on the method and setting. Binding seen in cells or lysates may run through a third protein. A yes stands for co-enrichment or nearness to the bait. Other partners may have been found.
